Data source: PubChem BioAssay AID504808 (Drosophila RNAi Screening Center, 2011)
The deposit covers about 21,000 reagents; shown is an unselected part of those that have a named target and a result. In the full data, 18 (0.084%) are marked active. 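Raw counts without plate normalisation, one of two replicates; the ratio scores behind the calls were not deposited.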 A plus sign joins genes that one reagent is predicted to hit. No sequences are given here. The record does not give: the amount of reagent, the time to read-out.

Assay: 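Chromatin factors that keep E2F targets switched off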 (primary screen)
Cells: Drosophila S2 cells
Reagent: long dsRNA against Drosophila genes
Measured: 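Firefly luciferase driven by E2F sites, normalised to Renilla luciferase on the same minimal promoter, measured by plate reader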
Direction: E2F firefly: higher = more E2F reporter activity; Renilla normaliser: higher = more normaliser reporter signal
Active means: 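a knock-down counted as active when the firefly/Renilla E2F signal rose above 50%, a threshold chosen arbitrarily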

gene	DRSC id	E2F firefly, rep 1	Renilla normaliser, rep 1	Call
p-cup (presidents-cup)	DRSC19513	2.25e5	7946	inactive
CG17601	DRSC20639	1.30e5	7110	inactive
AstC (Allatostatin C)	DRSC02403	1.57e5	5351	inactive
Vha26 (Vacuolar H[+]-ATPase 26kD subunit)	DRSC12371	74331	3196	inactive
dod (dodo)	DRSC20577	1.35e5	6865	inactive
sut2 (sugar transporter 2)	DRSC07701	2818	181	inactive
CG42502 + CG10570	DRSC02071	93823	4214	inactive
nbs	DRSC11373	1.27e5	6709	inactive
clumsy	DRSC03111	1.00e5	3774	inactive
Cdc27 (Cell division cycle 27)	DRSC11112	70549	3674	inactive
raw	DRSC03599	1.02e5	4519	inactive
raw	DRSC03600	1.63e5	5960	inactive
CG7384	DRSC03053	90286	3804	inactive
CG32379	DRSC10318	1.00e5	4071	inactive
CG7458	DRSC11829	1.47e5	7696	inactive
CG15385	DRSC00399	1.69e5	7785	inactive
CG6511	DRSC10656	93438	4485	inactive
CG7483	DRSC16249	1.37e5	7299	inactive
CG7483	DRSC22432			inactive
Eig71Ec (Ecdysone-induced gene 71Ec)	DRSC11150	1.69e5	7956	inactive
PpY-55A (Protein phosphatase Y at 55A)	DRSC07513	1.35e5	4699	inactive
yellow-e	DRSC12966	88499	2329	inactive
yellow-e	DRSC16563	1.18e5	5747	inactive
ND-MWFE (NADH dehydrogenase (ubiquinone) MWFE subunit)	DRSC06364	1.03e5	3928	inactive
IntS4 (Integrator 4)	DRSC17810	8739	868	inactive
CG6845	DRSC08576	86189	4166	inactive
CG9903	DRSC20213	1.41e5	17702	inactive
CanA-14F (Calcineurin A at 14F)	DRSC20211	2.52e5	6633	inactive
Cdc2rk (Cdc2-related kinase)	DRSC07590	1.42e5	5323	inactive
Dmtn (Dementin)	DRSC12513	71538	3262	inactive
CG4362	DRSC15567	1.53e5	8326	inactive
Vps39 (Vacuolar protein sorting 39)	DRSC16205	77399	4173	inactive
Naus (Nausicaa)	DRSC06011	64850	3453	inactive
Naus (Nausicaa)	DRSC06469	1.41e5	4743	inactive
lili (lilipod)	DRSC14143	70996	3591	inactive
Topors (Topoisomerase I-interacting protein)	DRSC06531	65939	3305	inactive
Cyp313a5 (Cytochrome P450 313a5)	DRSC16628	1.60e5	6883	inactive
Chsy (Chondroitin sulfate synthase)	DRSC20175	1.50e5	5838	inactive
Chsy (Chondroitin sulfate synthase)	DRSC20176	1.53e5	5927	inactive
CG32407	DRSC09789	81960	3363	inactive
byn (brachyenteron)	DRSC11332	82144	3328	inactive
CG13793	DRSC02297	1.49e5	5029	inactive
CG30222	DRSC04125	96405	4301	inactive
CG30222	DRSC04262	1.03e5	4323	inactive
Culd (CUB and LDLa domain)	DRSC10262	91652	3756	inactive
CG5664	DRSC11782	53706	3579	inactive
lncRNA:CR42862 (long non-coding RNA:CR42862)	DRSC08348	69684	3578	inactive
Tsp42Ea (Tetraspanin 42Ea)	DRSC04982	1.50e5	4672	inactive
Tsp42Ea (Tetraspanin 42Ea)	DRSC06792	1.57e5	5542	inactive
LManIII (Lysosomal alpha-mannosidase III)	DRSC03221	1.50e5	5312	inactive
alphaTub84B (alpha-Tubulin at 84B)	DRSC12622	1.11e5	6445	inactive
CG13101	DRSC02201	85420	3478	inactive
CG33307	DRSC01349	90945	5593	inactive
CG33521	DRSC17179	1.03e5	3056	inactive
CG33521	DRSC17211	1.30e5	6958	inactive
CG11779 + CG5835	DRSC15886	1.31e5	7350	inactive
nSMase (neutral sphingomyelinase)	DRSC08237	77590	3177	inactive
Alg12 (Alg12 alpha-1,6-mannosyltransferase)	DRSC16416	1.67e5	7697	inactive
SCCRO (Squamous cell carcinoma-related oncogene)	DRSC10844	1.57e5	7603	inactive
CG15449	DRSC20521	1.36e5	7108	inactive
CG14556	DRSC14899	1.10e5	5755	inactive
Pino (Pinocchio)	DRSC00038	1.41e5	5128	inactive
Pino (Pinocchio)	DRSC00662	83519	4286	inactive
CG34430	DRSC06499	1.45e5	4774	inactive
Gr94a (Gustatory receptor 94a)	DRSC13597	84664	2407	inactive
Obp99d (Odorant-binding protein 99d)	DRSC15046	1.24e5	6788	inactive
CG3081	DRSC18571	75417	4207	inactive
Gabat (gamma-aminobutyric acid transaminase)	DRSC10846	1.31e5	7207	inactive
Lrch (Leucine-rich-repeats and calponin homology domain protein)	DRSC02996	83301	3483	inactive
Akh (Adipokinetic hormone)	DRSC08138	98840	4119	inactive
CG10747	DRSC02104	1.15e5	4202	inactive

Targets listed so far whose target name begins with P or p:
gene	DRSC id	E2F firefly, rep 1	Renilla normaliser, rep 1	Call
p-cup (presidents-cup)	DRSC19513	2.25e5	7946	inactive
PpY-55A (Protein phosphatase Y at 55A)	DRSC07513	1.35e5	4699	inactive
Pino (Pinocchio)	DRSC00038	1.41e5	5128	inactive
Pino (Pinocchio)	DRSC00662	83519	4286	inactive

Further records follow:
gene	DRSC id	E2F firefly, rep 1	Renilla normaliser, rep 1	Call
Pgk (Phosphoglycerate kinase)	DRSC00769	1.67e5	5783	inactive
CG18428	DRSC15326	1.13e5	6610	inactive
CG6576	DRSC10663	1.06e5	4772	inactive
Es2	DRSC18663	7707	748	inactive
Rcd-1r + CG13102	DRSC03266	1.47e5	4864	inactive
mat (materazzi)	DRSC08376	87254	3996	inactive
CG6972	DRSC16159	98790	6331	inactive
CG15375	DRSC18045	1.22e5	5692	inactive
Ask1 (Apoptotic signal-regulating kinase 1)	DRSC16789	1.47e5	7268	inactive
CG11694	DRSC14354	1.20e5	5665	inactive
cGlr2 (cGAS-like receptor 2)	DRSC04017	1.10e5	6430	inactive
CSN8 (COP9 signalosome subunit 8)	DRSC02257	93785	3802	inactive
Spc25	DRSC14164	1.21e5	6502	inactive
CG1965	DRSC12577	67297	3332	inactive
CG3032	DRSC18266	1.32e5	6210	inactive
Osi2 (Osiris 2)	DRSC12174	1.24e5	6800	inactive
CG6293	DRSC16011	54504	3140	inactive
Asap (ArfGAP with SH3 domain, ankyrin repeat and PH domain)	DRSC06493	1.52e5	4858	inactive
Asap (ArfGAP with SH3 domain, ankyrin repeat and PH domain)	DRSC06830	2842	223	inactive
CG7840	DRSC03075	96371	4058	inactive
GluProRS (Glutamyl-prolyl-tRNA synthetase)	DRSC14095	67007	3002	inactive
Tdrd3 (Tudor domain containing 3)	DRSC10016	1.62e5	8206	inactive
CG13474	DRSC10018	1.76e5	7966	inactive
CG11362	DRSC04106	1.09e5	4426	inactive
Fbxl7 (F-box and leucine-rich repeat protein 7)	DRSC15553	1.21e5	6275	inactive
Panx (Panoramix)	DRSC04563	1.12e5	4814	inactive
HP1b (Heterochromatin Protein 1b)	DRSC18418	89865	7179	inactive
CG10474	DRSC05993	1.42e5	4746	inactive
CG10165	DRSC02017	1.01e5	4032	inactive
Fancd2	DRSC15208	1.18e5	7725	inactive
CG13723	DRSC10052	1.59e5	6892	inactive
CG12426	DRSC14516	1.32e5	6808	inactive
Ufc1 (Ubiquitin-fold modifier conjugating enzyme 1)	DRSC07156	83654	3270	inactive
Vajk2	DRSC02540	97999	4272	inactive
Stat92E	DRSC16870	59782	2921	inactive
Nlg1 (Neuroligin 1)	DRSC12485	74362	3670	inactive
Nlg1 (Neuroligin 1)	DRSC12532	1.34e5	6111	inactive
Nlg1 (Neuroligin 1)	DRSC12533	1.27e5	5929	inactive
Nlg1 (Neuroligin 1)	DRSC12539	1.35e5	7195	inactive
